Some of the results follow. Most of these values are background signal.
Assays:
Test in all cases: fluorescence intensity of antibody binding to polysaccharide-coupled beads; higher = stronger binding
[1] = biological target: pneumococcal polysaccharide Pn18B
[2] = biological target: pneumococcal polysaccharide Pn18C
[3] = biological target: pneumococcal polysaccharide Pn18F
[4] = biological target: pneumococcal polysaccharide Pn19A
[5] = biological target: pneumococcal polysaccharide Pn19B
[6] = biological target: pneumococcal polysaccharide Pn19C
[7] = biological target: pneumococcal polysaccharide Pn19F
[8] = biological target: pneumococcal polysaccharide Pn2
[9] = biological target: pneumococcal polysaccharide Pn20A
[10] = biological target: pneumococcal polysaccharide Pn20B
[11] = biological target: pneumococcal polysaccharide Pn21
[12] = biological target: pneumococcal polysaccharide Pn22A
[13] = biological target: pneumococcal polysaccharide Pn22F
[14] = biological target: pneumococcal polysaccharide Pn23A
[15] = biological target: pneumococcal polysaccharide Pn23B
[16] = biological target: pneumococcal polysaccharide Pn23F
[17] = biological target: pneumococcal polysaccharide Pn24A
[18] = biological target: pneumococcal polysaccharide Pn24B
[19] = biological target: pneumococcal polysaccharide Pn24F
[20] = biological target: pneumococcal polysaccharide Pn25A
[21] = biological target: pneumococcal polysaccharide Pn25F
[22] = biological target: pneumococcal polysaccharide Pn27
[23] = biological target: pneumococcal polysaccharide Pn28A
[24] = antibody concentration 2.8593 ng/mL
[25] = antibody concentration 15.2894 ng/mL
[26] = antibody concentration 81.7561 ng/mL
[27] = antibody concentration 437.17 ng/mL
[28] = antibody concentration 2337.65 ng/mL
[29] = antibody concentration 12500 ng/mL
[30] = antibody concentration 0.1 ng/mL
[31] = antibody concentration 0.534724 ng/mL

B1: 4-173.5 (protein)
chain 1: QLQLQESGPGLVKPSETLSLTCAVSGDSISSNYWSWIRQPPGKGLEWIGRISDGGGSTDYNPSLKSRVTISTDTSKNQFSLKLNSVTAADTAVYFCARGSYRVDYWGQGVLVTVSS
chain 2: QAALTQPPSMSGSPGQSVTISCTGASSDIGGYNRVSWYQQHPANAPKLMIYDVSKRPSGVSDRFSGSKSGNTASLTISGLQADDEADYYCSSYAHINTALFGGGTRLTVL
[1]; [24]
  fluorescence intensity: 31.5 MFI
[1]; [25]
  fluorescence intensity: 40.5 MFI
[1]; [26]
  fluorescence intensity: 125 MFI
[1]; [27]
  fluorescence intensity: 578 MFI
[1]; [28]
  fluorescence intensity: 2100 MFI
[1]; [29]
  fluorescence intensity: 3810 MFI
[2]; [30]
  fluorescence intensity: 19 MFI
[2]; [31]
  fluorescence intensity: 19.5 MFI
[2]; [24]
  fluorescence intensity: 20.5 MFI
[2]; [25]
  fluorescence intensity: 29 MFI
[2]; [26]
  fluorescence intensity: 86 MFI
[2]; [27]
  fluorescence intensity: 287 MFI
[2]; [28]
  fluorescence intensity: 816 MFI
[2]; [29]
  fluorescence intensity: 1530 MFI
[3]; [30]
  fluorescence intensity: 23 MFI
[3]; [31]
  fluorescence intensity: 22.5 MFI
[3]; [24]
  fluorescence intensity: 23 MFI
[3]; [25]
  fluorescence intensity: 26.8 MFI
[3]; [26]
  fluorescence intensity: 58 MFI
[3]; [27]
  fluorescence intensity: 253 MFI
[3]; [28]
  fluorescence intensity: 1230 MFI
[3]; [29]
  fluorescence intensity: 2450 MFI
[4]; [30]
  fluorescence intensity: 18 MFI
[4]; [31]
  fluorescence intensity: 18.5 MFI
[4]; [24]
  fluorescence intensity: 21.5 MFI
[4]; [25]
  fluorescence intensity: 41.8 MFI
[4]; [26]
  fluorescence intensity: 136 MFI
[4]; [27]
  fluorescence intensity: 566 MFI
[4]; [28]
  fluorescence intensity: 1630 MFI
[4]; [29]
  fluorescence intensity: 2700 MFI
[5]; [30]
  fluorescence intensity: 29 MFI
[5]; [31]
  fluorescence intensity: 30 MFI
[5]; [24]
  fluorescence intensity: 32.5 MFI
[5]; [25]
  fluorescence intensity: 34.5 MFI
[5]; [26]
  fluorescence intensity: 83 MFI
[5]; [27]
  fluorescence intensity: 468 MFI
[5]; [28]
  fluorescence intensity: 2360 MFI
[5]; [29]
  fluorescence intensity: 5570 MFI
[6]; [30]
  fluorescence intensity: 26.2 MFI
[6]; [31]
  fluorescence intensity: 25.2 MFI
[6]; [24]
  fluorescence intensity: 28.8 MFI
[6]; [25]
  fluorescence intensity: 45.5 MFI
[6]; [26]
  fluorescence intensity: 236 MFI
[6]; [27]
  fluorescence intensity: 1440 MFI
[6]; [28]
  fluorescence intensity: 6140 MFI
[6]; [29]
  fluorescence intensity: 10800 MFI
[7]; [30]
  fluorescence intensity: 26 MFI
[7]; [31]
  fluorescence intensity: 27 MFI
[7]; [24]
  fluorescence intensity: 32.8 MFI
[7]; [25]
  fluorescence intensity: 63.5 MFI
[7]; [26]
  fluorescence intensity: 234 MFI
[7]; [27]
  fluorescence intensity: 1000 MFI
[7]; [28]
  fluorescence intensity: 2670 MFI
[7]; [29]
  fluorescence intensity: 4040 MFI
[8]; [30]
  fluorescence intensity: 20 MFI
[8]; [31]
  fluorescence intensity: 20 MFI
[8]; [24]
  fluorescence intensity: 20.2 MFI
[8]; [25]
  fluorescence intensity: 27.5 MFI
[8]; [26]
  fluorescence intensity: 96.8 MFI
[8]; [27]
  fluorescence intensity: 382 MFI
[8]; [28]
  fluorescence intensity: 1310 MFI
[8]; [29]
  fluorescence intensity: 2240 MFI
[9]; [30]
  fluorescence intensity: 22 MFI
[9]; [31]
  fluorescence intensity: 23 MFI
[9]; [24]
  fluorescence intensity: 24 MFI
[9]; [25]
  fluorescence intensity: 33.5 MFI
[9]; [26]
  fluorescence intensity: 116 MFI
[9]; [27]
  fluorescence intensity: 612 MFI
[9]; [28]
  fluorescence intensity: 2340 MFI
[9]; [29]
  fluorescence intensity: 4410 MFI
[10]; [30]
  fluorescence intensity: 24.5 MFI
[10]; [31]
  fluorescence intensity: 23.5 MFI
[10]; [24]
  fluorescence intensity: 26.2 MFI
[10]; [25]
  fluorescence intensity: 34.8 MFI
[10]; [26]
  fluorescence intensity: 116 MFI
[10]; [27]
  fluorescence intensity: 659 MFI
[10]; [28]
  fluorescence intensity: 2630 MFI
[10]; [29]
  fluorescence intensity: 3860 MFI
[11]; [30]
  fluorescence intensity: 19 MFI
[11]; [31]
  fluorescence intensity: 19.2 MFI
[11]; [24]
  fluorescence intensity: 19 MFI
[11]; [25]
  fluorescence intensity: 22.8 MFI
[11]; [26]
  fluorescence intensity: 35.5 MFI
[11]; [27]
  fluorescence intensity: 142 MFI
[11]; [28]
  fluorescence intensity: 613 MFI
[11]; [29]
  fluorescence intensity: 1230 MFI
[12]; [30]
  fluorescence intensity: 20.8 MFI
[12]; [31]
  fluorescence intensity: 22 MFI
[12]; [24]
  fluorescence intensity: 24 MFI
[12]; [25]
  fluorescence intensity: 47 MFI
[12]; [26]
  fluorescence intensity: 212 MFI
[12]; [27]
  fluorescence intensity: 1140 MFI
[12]; [28]
  fluorescence intensity: 3870 MFI
[12]; [29]
  fluorescence intensity: 6180 MFI
[13]; [30]
  fluorescence intensity: 32.5 MFI
[13]; [31]
  fluorescence intensity: 30.2 MFI
[13]; [24]
  fluorescence intensity: 34.5 MFI
[13]; [25]
  fluorescence intensity: 44 MFI
[13]; [26]
  fluorescence intensity: 118 MFI
[13]; [27]
  fluorescence intensity: 490 MFI
[13]; [28]
  fluorescence intensity: 1560 MFI
[13]; [29]
  fluorescence intensity: 2440 MFI
[14]; [30]
  fluorescence intensity: 27 MFI
[14]; [31]
  fluorescence intensity: 26.5 MFI
[14]; [24]
  fluorescence intensity: 26.2 MFI
[14]; [25]
  fluorescence intensity: 23.5 MFI
[14]; [26]
  fluorescence intensity: 28 MFI
[14]; [27]
  fluorescence intensity: 70.5 MFI
[14]; [28]
  fluorescence intensity: 426 MFI
[14]; [29]
  fluorescence intensity: 1800 MFI
[15]; [30]
  fluorescence intensity: 29 MFI
[15]; [31]
  fluorescence intensity: 29.5 MFI
[15]; [24]
  fluorescence intensity: 32.5 MFI
[15]; [25]
  fluorescence intensity: 32.2 MFI
[15]; [26]
  fluorescence intensity: 51.5 MFI
[15]; [27]
  fluorescence intensity: 204 MFI
[15]; [28]
  fluorescence intensity: 1120 MFI
[15]; [29]
  fluorescence intensity: 2520 MFI
[16]; [30]
  fluorescence intensity: 18.8 MFI
[16]; [31]
  fluorescence intensity: 17.8 MFI
[16]; [24]
  fluorescence intensity: 21 MFI
[16]; [25]
  fluorescence intensity: 41 MFI
[16]; [26]
  fluorescence intensity: 173 MFI
[16]; [27]
  fluorescence intensity: 894 MFI
[16]; [28]
  fluorescence intensity: 3040 MFI
[16]; [29]
  fluorescence intensity: 4620 MFI
[17]; [30]
  fluorescence intensity: 15 MFI
[17]; [31]
  fluorescence intensity: 17 MFI
[17]; [24]
  fluorescence intensity: 17.5 MFI
[17]; [25]
  fluorescence intensity: 31 MFI
[17]; [26]
  fluorescence intensity: 135 MFI
[17]; [27]
  fluorescence intensity: 702 MFI
[17]; [28]
  fluorescence intensity: 2750 MFI
[17]; [29]
  fluorescence intensity: 4930 MFI
[18]; [30]
  fluorescence intensity: 19.5 MFI
[18]; [31]
  fluorescence intensity: 17.8 MFI
[18]; [24]
  fluorescence intensity: 19.5 MFI
[18]; [25]
  fluorescence intensity: 27 MFI
[18]; [26]
  fluorescence intensity: 73.2 MFI
[18]; [27]
  fluorescence intensity: 388 MFI
[18]; [28]
  fluorescence intensity: 2050 MFI
[18]; [29]
  fluorescence intensity: 3780 MFI
[19]; [30]
  fluorescence intensity: 18.8 MFI
[19]; [31]
  fluorescence intensity: 18 MFI
[19]; [24]
  fluorescence intensity: 18.5 MFI
[19]; [25]
  fluorescence intensity: 29 MFI
[19]; [26]
  fluorescence intensity: 131 MFI
[19]; [27]
  fluorescence intensity: 504 MFI
[19]; [28]
  fluorescence intensity: 2590 MFI
[19]; [29]
  fluorescence intensity: 4080 MFI
[20]; [30]
  fluorescence intensity: 23.8 MFI
[20]; [31]
  fluorescence intensity: 24.8 MFI
[20]; [24]
  fluorescence intensity: 24.5 MFI
[20]; [25]
  fluorescence intensity: 34.5 MFI
[20]; [26]
  fluorescence intensity: 100 MFI
[20]; [27]
  fluorescence intensity: 536 MFI
[20]; [28]
  fluorescence intensity: 2630 MFI
[20]; [29]
  fluorescence intensity: 5220 MFI
[21]; [30]
  fluorescence intensity: 29 MFI
[21]; [31]
  fluorescence intensity: 30.5 MFI
[21]; [24]
  fluorescence intensity: 31.5 MFI
[21]; [25]
  fluorescence intensity: 35 MFI
[21]; [26]
  fluorescence intensity: 58 MFI
[21]; [27]
  fluorescence intensity: 229 MFI
[21]; [28]
  fluorescence intensity: 1090 MFI
[21]; [29]
  fluorescence intensity: 2650 MFI
[22]; [30]
  fluorescence intensity: 18 MFI
[22]; [31]
  fluorescence intensity: 17.5 MFI
[22]; [24]
  fluorescence intensity: 17 MFI
[22]; [25]
  fluorescence intensity: 25 MFI
[22]; [26]
  fluorescence intensity: 80 MFI
[22]; [27]
  fluorescence intensity: 400 MFI
[22]; [28]
  fluorescence intensity: 1720 MFI
[22]; [29]
  fluorescence intensity: 3510 MFI
[23]; [30]
  fluorescence intensity: 27.5 MFI
[23]; [31]
  fluorescence intensity: 27 MFI
[23]; [24]
  fluorescence intensity: 28 MFI
[23]; [25]
  fluorescence intensity: 31 MFI
[23]; [26]
  fluorescence intensity: 40.5 MFI
[23]; [27]
  fluorescence intensity: 126 MFI
